PubChem BioAssay AID1224828 | NIAID, 2016
This is one part, drawn at random, of about 17,000 deposited reagents. In the full data, 762 (4.5%) got an active call. 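Active calls include both raised and lowered p65 entry, mostly lowered; wells with fewer than 50 cells lack a z-score.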 The raw values are shown without normalisation. A number with no mark means an inactive call. No sequences are given here.

Test: 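Knock-downs that increase or decrease LPS-induced p65 nuclear translocation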 (primary screen)
Cells: mouse RAW264.7 G9 macrophage reporter cells (GFP-p65, Tnf promoter-mCherry)
Reagents: siRNA pool against mouse genes, 100 nM
Timing: 2 days siRNA transfection, then 40 min LPS before fixation
Treatment: LPS (Salmonella minnesota R595) at 10 ng/ml
Measurement: 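Imaged p65 nuclear translocation ratio, normalised to the plate median, converted to robust z-scores and averaged across two replicates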
Direction: p65 translocation robust z-score: higher = more nuclear NF-kappaB p65 after LPS than the plate median; nuclear/cytoplasmic p65 ratio: higher = more nuclear NF-kappaB p65
Hit rule: 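Called active when z exceeds 3.3 or falls under -1.56 (median of Tlr4 controls), giving activity score of at least 50; no calls for control wells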
Calls: active = hit (p65 shift raised or lowered); inactive = no clear change

gene symbol,p65 translocation robust z-score,"nuclear/cytoplasmic p65 ratio, rep 1","nuclear/cytoplasmic p65 ratio, rep 2",low cell count flag
Vps37a (vacuolar protein sorting 37A),1.42,1.77,1.76,enough cells to score
Tmem67 (transmembrane protein 67),2.04,1.58,1.78,enough cells to score
Nufip1 (nuclear FMR1 interacting protein 1),-0.01,1.74,1.51,enough cells to score
Cstl1 (cystatin-like 1),-0.21,1.56,1.74,enough cells to score
Npepl1 (aminopeptidase-like 1),0.66,1.78,1.66,enough cells to score
Ptgfr (prostaglandin F receptor),-1.6 (active),1.28,1.36,enough cells to score
Or52p1 (olfactory receptor family 52 subfamily P member 1),0.09,1.47,1.27,enough cells to score
Tmem121b (transmembrane protein 121B),-0.39,1.51,1.74,enough cells to score
"Calca (calcitonin/calcitonin-related polypeptide, alpha)",0.42,1.38,1.65,enough cells to score
Mgat1 (mannoside acetylglucosaminyltransferase 1),0.59,1.84,1.6,enough cells to score
Slc23a1,1.65,1.62,1.52,enough cells to score
"Idh1 (isocitrate dehydrogenase 1 (NADP+), soluble)",,1.37,1.47,fewer than 50 cells per well; well left out of scoring
Rida (reactive intermediate imine deaminase A homolog),0.01,1.36,1.56,enough cells to score
"Gapdhs (glyceraldehyde-3-phosphate dehydrogenase, spermatogenic)",-1.89 (active),1.3,1.2,enough cells to score
Or5d20 (olfactory receptor family 5 subfamily D member 20),-2.81 (active),1.39,1.13,enough cells to score
"Fars2 (phenylalanine-tRNA synthetase 2, mitochondrial)",4.51 (active),1.13,2.09,enough cells to score
Pltp (phospholipid transfer protein),,1.3,1.38,fewer than 50 cells per well; well left out of scoring
Fbxo25 (F-box protein 25),0.52,1.51,1.46,enough cells to score
Prr15l (proline rich 15-like),0.09,1.6,1.85,enough cells to score
"Hsfy2 (heat shock transcription factor, Y-linked 2)",0.07,1.63,1.62,enough cells to score
"Tspyl5 (testis-specific protein, Y-encoded-like 5)",0.34,1.59,1.36,enough cells to score
Lrrn4 (leucine rich repeat neuronal 4),-1.13,1.3,1.49,enough cells to score
Znrd2 (zinc ribbon domain containing 2),-1.69 (active),1.26,1.36,enough cells to score
4833432P19Rik (retired record),-0.15,1.27,1.24,enough cells to score
Smg8 (SMG8 nonsense mediated mRNA decay factor),,1.34,1.22,fewer than 50 cells per well; well left out of scoring
Twsg1 (twisted gastrulation BMP signaling modulator 1),-0.83,1.28,1.4,enough cells to score
"Agtr1b (angiotensin II receptor, type 1b)",-0.18,1.5,1.54,enough cells to score
Trhde (TRH-degrading enzyme),-0.43,1.36,1.62,enough cells to score
"Aldoart1 (aldolase 1 A, retrogene 1)",0.09,1.27,1.14,enough cells to score
Pum2 (pumilio RNA-binding family member 2),-0.18,1.38,1.17,enough cells to score
Oaz1 (ornithine decarboxylase antizyme 1),-0.22,1.47,1.34,enough cells to score
Ttc17 (tetratricopeptide repeat domain 17),,1.43,1.5,fewer than 50 cells per well; well left out of scoring
Chst7 (carbohydrate sulfotransferase 7),-0.44,1.57,1.66,enough cells to score
Ksr1 (kinase suppressor of ras 1),0.77,1.6,1.47,enough cells to score
"Scn11a (sodium channel, voltage-gated, type XI, alpha)",0.9,1.79,1.57,enough cells to score
Tmem198 (transmembrane protein 198),-1.06,1.4,1.38,enough cells to score
Gigyf2 (GRB10 interacting GYF protein 2),0.89,1.46,1.3,enough cells to score
Slc15a4,0.07,1.46,1.22,enough cells to score
Prmt6 (protein arginine N-methyltransferase 6),-1.06,1.38,1.43,enough cells to score
Tinag (tubulointerstitial nephritis antigen),-1.15,1.16,1.12,enough cells to score
"Bivm (basic, immunoglobulin-like variable motif containing)",0.22,1.47,1.55,enough cells to score
Rcc1l (reculator of chromosome condensation 1 like),1.28,1.62,1.37,enough cells to score
Nfyc (nuclear transcription factor-Y gamma),0.24,1.44,1.49,enough cells to score
"Prl4a1 (prolactin family 4, subfamily a, member 1)",0.05,1.45,1.17,enough cells to score
Scd2 (stearoyl-Coenzyme A desaturase 2),-1.22,1.22,1.08,enough cells to score
Ccl9 (C-C motif chemokine ligand 9),1.43,1.7,2.13,enough cells to score
"Haus7 (HAUS augmin-like complex, subunit 7)",0.69,1.55,1.63,enough cells to score
Sh3bgr (SH3-binding domain glutamic acid-rich protein),0.75,1.37,1.34,enough cells to score
Il17rc (interleukin 17 receptor C),,1.34,1.26,fewer than 50 cells per well; well left out of scoring
"Vkorc1l1 (vitamin K epoxide reductase complex, subunit 1-like 1)",,1.13,1.13,fewer than 50 cells per well; well left out of scoring
Cpsf1 (cleavage and polyadenylation specific factor 1),1.86,1.68,2.27,enough cells to score
"Col5a3 (collagen, type V, alpha 3)",-0.87,1.39,1.23,enough cells to score
"Pkia (protein kinase inhibitor, alpha)",,1.89,1.23,fewer than 50 cells per well; well left out of scoring
Asb5 (ankyrin repeat and SOCs box-containing 5),0.17,1.57,1.6,enough cells to score
Med15 (mediator complex subunit 15),-0.86,1.31,1.16,enough cells to score
Fgfr4 (fibroblast growth factor receptor 4),-0.83,1.6,1.28,enough cells to score
Stag3 (STAG3 cohesin complex component),-0.4,1.37,1.05,enough cells to score
Exoc3l2 (exocyst complex component 3-like 2),1.79,1.56,1.74,enough cells to score
Cfap69 (cilia and flagella associated protein 69),0.23,1.41,1.56,enough cells to score

Taken from above:
For “nuclear/cytoplasmic p65 ratio, rep 2”, Hsfy2 (heat shock transcription factor, Y-linked 2) shows 1.62
Entry of Col5a3 (collagen, type V, alpha 3) under “p65 translocation robust z-score”: -0.87
For “nuclear/cytoplasmic p65 ratio, rep 2”, Or5d20 (olfactory receptor family 5 subfamily D member 20) reads 1.13 (active)
Vps37a (vacuolar protein sorting 37A), nuclear/cytoplasmic p65 ratio, rep 2 → 1.76
Under “nuclear/cytoplasmic p65 ratio, rep 2”, Haus7 (HAUS augmin-like complex, subunit 7) shows 1.63
Under “p65 translocation robust z-score”, Chst7 (carbohydrate sulfotransferase 7) has -0.44
